Patent publication US20250352662A1
No constants are given. Whether binding was seen depends on the method and setting. Some entries that bind do so weakly or less than the wild type.

Sequences of proteins named here, by UniProt entry; tags and fusion partners are left off. A change or cut given only in a name is not applied to a line headed by its entry.
UniProt O95436: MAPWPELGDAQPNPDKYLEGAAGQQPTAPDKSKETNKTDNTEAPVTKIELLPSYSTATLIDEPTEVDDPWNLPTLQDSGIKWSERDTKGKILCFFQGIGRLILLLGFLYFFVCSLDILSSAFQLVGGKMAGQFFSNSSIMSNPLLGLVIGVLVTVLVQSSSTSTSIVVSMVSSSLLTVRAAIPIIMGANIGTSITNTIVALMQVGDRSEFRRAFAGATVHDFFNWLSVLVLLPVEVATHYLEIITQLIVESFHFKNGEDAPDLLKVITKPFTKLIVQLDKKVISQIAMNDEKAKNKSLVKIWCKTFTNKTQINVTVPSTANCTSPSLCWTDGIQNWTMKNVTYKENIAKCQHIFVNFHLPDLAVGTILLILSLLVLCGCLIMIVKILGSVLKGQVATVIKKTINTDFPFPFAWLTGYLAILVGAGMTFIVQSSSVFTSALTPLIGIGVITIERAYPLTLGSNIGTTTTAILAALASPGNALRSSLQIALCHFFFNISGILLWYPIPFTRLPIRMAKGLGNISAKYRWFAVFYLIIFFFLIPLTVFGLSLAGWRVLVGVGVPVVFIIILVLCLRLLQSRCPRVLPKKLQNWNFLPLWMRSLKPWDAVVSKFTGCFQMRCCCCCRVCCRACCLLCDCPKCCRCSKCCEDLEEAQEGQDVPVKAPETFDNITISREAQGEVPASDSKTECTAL

Biological target: human NaPi2b on OVCAR3 human ovarian cancer cells (human) (UniProt O95436)
Test: flow cytometry on OVCAR3 cells

binding: binds
B1: XMT-1535 mIgG2a Conjugate 32d, DAR 8.8 (antibody, V domains shown)
VH: QVQLVQSGAEVVKPGASVKMSCKASGYTFTGYNIHWVKQAPGQGLEWIGAIYPGNGDTSYKQKFRGRATLTADTSTSTVYMELSSLRSEDSAVYYCARGETARATFAYWGQGTLVTVSSG
VL: DIQMTQSPSSLSASVGDRVTITCSASQDIGNFLNWYQQKPGKTVKVLIYYTSSLYSGVPSRFSGSGSGTDYTLTISSLQPEDFATYYCQQYSKLPLTFGQGTKLELKR
